The supplement of paper PMC11542785
Where a name gives a salt, the structure may show the parent alone. Some of the results follow. Repeats are few or missing, and single values can be far off.

System: Drosophila melanogaster DPAGT1 (Alg7) RNAi eye model
Assay: eye size Z-score vs DMSO-treated DPAGT1 model flies; higher = larger eye (suppression of DPAGT1 phenotype)
Conditions: 5 uM

SMILES	eye size Z-score	eye size Z-score (female)
NS(=O)(=O)c1cc2c(cc1Cl)NCNS2(=O)=O [Hydrochlorothiazide]	1.38	–
CN(C)CCc1c[nH]c2ccc(C[C@H]3COC(=O)N3)cc12 [Zolmitriptan]	-1.19	–
COc1ccc(-c2noc(CC(=O)O)c2-c2ccc(OC)cc2)cc1 [Mofezolac]	-1.02	–
CN(C)CCC=C1c2ccccc2C=Cc2ccccc21 [Cyclobenzaprine hydrochloride]	-0.64	–
O=c1[nH]c(=O)n([C@H]2C[C@H](O)[C@@H](CO)O2)cc1F [Floxuridine]	0.52	–
COc1cc(C)c(/C=C/C(C)=C/C=C/C(C)=C/C(=O)O)c(C)c1C [Acitretin]	1.05	–
CC(C)OC(=O)CCC/C=C\C[C@@H]1[C@@H](CC[C@@H](O)CCc2ccccc2)[C@H](O)C[C@@H]1O [Latanoprost]	-0.25	–
CC(=O)Oc1cc(C(C)C)c(OCCN(C)C)cc1C [Moxisylyte hydrochoride]	1.21	–
CC(c1cc2ccccc2s1)N(O)C(N)=O (stereo unspecified) [Zileuton]	0.5	–
CCn1cc(C(=O)O)c(=O)c2cc(F)c(N3CCN(C)CC3)cc21 [Pefloxacin]	-0.24	–
Cc1ccc(S(=O)(=O)NCl)cc1 [Chloramine-T hydrate]	-0.48	–
COc1cc(N)cn[n+]1-c1ccccc1 [Amezinium metilsulfate]	-0.33	–
C[C@@H]1CN(c2c(F)c(N)c3c(=O)c(C(=O)O)cn(C4CC4)c3c2F)C[C@H](C)N1 [Sparfloxacin]	-0.04	–
C[C@]12C=CC(=O)C=C1CC[C@@H]1[C@@H]2C(=O)C[C@@]2(C)[C@H]1CC[C@]2(O)C(=O)CO [Prednisone]	0.76	–
NC(=O)c1cc[n+](CC2=C(C(=O)O)N3C(=O)[C@@H](NC(=O)C(c4ccccc4)S(=O)(=O)[O-])[C@H]3SC2)cc1 (stereo partly specified) [Cefsulodin Sodium Salt Hydrate]	-0.78	–
CCn1cc(C(=O)O)c(=O)c2cc(F)c(N3CCNC(C)C3)c(F)c21 (stereo unspecified) [Lomefloxacin hydrochloride]	-0.22	–
COc1cc(C)nc(-n2nc(C)cc2OC)n1 [Epirizole]	0.32	–
CS(=O)(=O)Nc1ccc([N+](=O)[O-])cc1Oc1ccccc1 [Nimesulide]	0.64	–
CNC(=C[N+](=O)[O-])NCCSCc1csc(CN(C)C)n1 [Nizatidine]	0.11	–
CC(C)CN(C[C@@H](O)[C@H](Cc1ccccc1)NC(=O)O[C@H]1CCOC1)S(=O)(=O)c1ccc(N)cc1 [Amprenavir]	0.43	–
CNCCC=C1c2ccccc2CCc2ccccc21 [Nortriptyline hydrochloride]	1.55	–
C[C@H]1[C@H](NC(=O)/C(=N\OC(C)(C)C(=O)O)c2csc(N)n2)C(=O)N1S(=O)(=O)O [Aztreonam]	-0.23	–
CCc1c2c(nc3ccc(OC(=O)N4CCC(N5CCCCC5)CC4)cc13)-c1cc3c(c(=O)n1C2)COC(=O)[C@]3(O)CC [Irinotecan hydrochloride trihydrate]	-0.07	–

Grouped by structure, the compounds so far containing an NH in an aromatic ring (2)
SMILES	eye size Z-score	eye size Z-score (female)
CN(C)CCc1c[nH]c2ccc(C[C@H]3COC(=O)N3)cc12 [Zolmitriptan]	-1.19	–
O=c1[nH]c(=O)n([C@H]2C[C@H](O)[C@@H](CO)O2)cc1F [Floxuridine]	0.52	–

(cont.)

SMILES	eye size Z-score	eye size Z-score (female)
Cc1ccc(/C(=C\CN2CCCC2)c2ccccn2)cc1 [Triprolidine hydrochloride]	0.48	–
CC(C)(O/N=C(\C(=O)N[C@@H]1C(=O)N2C(C(=O)[O-])=C(C[n+]3ccccc3)CS[C@H]12)c1csc(N)n1)C(=O)O [Ceftazidime pentahydrate]	0.66	–
Cc1c(Cl)cccc1Nc1ncccc1C(=O)O [Clonixin lysinate]	0.28	–
CN1CCN(C(c2ccccc2)c2ccc(Cl)cc2)CC1 (stereo unspecified) [Chlorcyclizine hydrochloride]	-0.48	–
CCc1oc2ccccc2c1C(=O)c1cc(I)c(O)c(I)c1 [Benziodarone]	-0.09	–
O=C(N/N=C/c1ccc([N+](=O)[O-])o1)c1ccc(O)cc1 [Nifuroxazide]	0.73	–
CC(C)(C)NCC(O)CSc1nc(-c2ccc(C(N)=O)s2)cs1 (stereo unspecified) [Arotinolol hydrochloride]	-0.16	–
NC(=O)c1ncn([C@@H]2O[C@H](CO)[C@@H](O)[C@H]2O)c1O [Mizoribine]	0.2	–
CC(=O)Nc1c(I)c(NC(C)=O)c(I)c(C(=O)O)c1I [Diatrizoic acid dihydrate]	-0.15	–
CCc1cc(C(N)=S)ccn1 [Ethionamide]	-0.28	–
CN(N=O)C(=O)N[C@@H](C=O)[C@@H](O)[C@H](O)[C@H](O)CO [Streptozotocin]	-0.23	–
CN1C2CCCC1CC(NC(=O)c1nn(C)c3ccccc13)C2 (stereo unspecified) [Granisetron]	0.8	–
CC(C)N1CCN(c2ccc(OCC3COC(Cn4cncn4)(c4ccc(Cl)cc4Cl)O3)cc2)CC1 (stereo unspecified) [Terconazole]	-0.09	–
O=C(NCCNCC(O)COc1ccc(O)cc1)N1CCOCC1 (stereo unspecified) [Xamoterol hemifumarate]	–	0.29
CCN(Cc1ccncc1)C(=O)C(CO)c1ccccc1 (stereo unspecified) [Tropicamide]	-0.03	–
CN(C)CCOC1=Cc2ccccc2Sc2ccc(Cl)cc21 [Zotepine]	0.43	–
Cc1ncc([N+](=O)[O-])n1CCO [Metronidazole]	0.01	–
CCN(CC)CC#CCOC(=O)C(O)(c1ccccc1)C1CCCCC1 (stereo unspecified) [Oxybutynin chloride]	0.04	–
OC(CCN1CCCCC1)(c1ccccc1)C1CC2C=CC1C2 (stereo unspecified) [Biperiden hydrochloride]	-0.18	–
COc1ccc(C(=O)NCc2cccnc2)cc1C(=O)NCc1cccnc1 [Picotamide monohydrate]	-0.21	–
C=CC[C@@H]1/C=C(\C)C[C@H](C)C[C@H](OC)[C@H]2O[C@@](O)(C(=O)C(=O)N3CCCC[C@H]3C(=O)O[C@H](/C(C)=C/[C@@H]3CC[C@@H](O)[C@H](OC)C3)[C@H](C)[C@@H](O)CC1=O)[C@H](C)C[C@@H]2OC [Tacrolimus Monohydrate]	0.43	–
NC[C@H]1O[C@H](O[C@H]2[C@H](O[C@@H]3O[C@H](CO)[C@@H](O)[C@H]3O)[C@@H](O)[C@H](N)C[C@@H]2N)[C@H](N)[C@@H](O)[C@@H]1O [Ribostamycin sulfate salt]	0.15	–
Cc1ccc(C(=O)c2cc(O)c(O)c([N+](=O)[O-])c2)cc1 [Tolcapone]	-0.06	–
